Data reported in the supplement of paper PMC10849652.
The other results are listed elsewhere or left out. Residues, ends and D or L forms follow the SMILES beside them. *: point of attachment. Cbz = O=C(OCc1ccccc1)*

Chains of the proteins cited; added tags and fusions are not shown. Lines headed by an entry give the natural chain unless they say otherwise; changes in a name come on top.
UniProt Q9Y421: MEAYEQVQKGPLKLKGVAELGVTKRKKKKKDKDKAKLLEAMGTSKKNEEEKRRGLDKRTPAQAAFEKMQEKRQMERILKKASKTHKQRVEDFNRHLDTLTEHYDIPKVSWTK
UniProt P62942, whole entry, looked up: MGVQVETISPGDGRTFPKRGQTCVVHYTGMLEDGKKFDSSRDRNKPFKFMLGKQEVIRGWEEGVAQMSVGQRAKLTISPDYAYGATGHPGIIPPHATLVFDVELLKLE
UniProt Q9UKT4: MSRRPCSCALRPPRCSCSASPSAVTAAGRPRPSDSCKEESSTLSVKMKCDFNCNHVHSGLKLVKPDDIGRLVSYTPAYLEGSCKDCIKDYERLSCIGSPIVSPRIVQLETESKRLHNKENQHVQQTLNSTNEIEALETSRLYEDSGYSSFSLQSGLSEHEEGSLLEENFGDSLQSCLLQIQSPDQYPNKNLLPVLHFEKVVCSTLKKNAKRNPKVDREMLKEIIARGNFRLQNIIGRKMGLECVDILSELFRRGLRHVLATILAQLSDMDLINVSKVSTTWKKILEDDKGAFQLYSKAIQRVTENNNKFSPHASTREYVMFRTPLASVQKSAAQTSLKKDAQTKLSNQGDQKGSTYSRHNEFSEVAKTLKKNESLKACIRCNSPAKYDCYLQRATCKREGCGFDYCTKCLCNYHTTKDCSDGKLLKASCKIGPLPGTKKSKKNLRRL
UniProt Q8N0W3: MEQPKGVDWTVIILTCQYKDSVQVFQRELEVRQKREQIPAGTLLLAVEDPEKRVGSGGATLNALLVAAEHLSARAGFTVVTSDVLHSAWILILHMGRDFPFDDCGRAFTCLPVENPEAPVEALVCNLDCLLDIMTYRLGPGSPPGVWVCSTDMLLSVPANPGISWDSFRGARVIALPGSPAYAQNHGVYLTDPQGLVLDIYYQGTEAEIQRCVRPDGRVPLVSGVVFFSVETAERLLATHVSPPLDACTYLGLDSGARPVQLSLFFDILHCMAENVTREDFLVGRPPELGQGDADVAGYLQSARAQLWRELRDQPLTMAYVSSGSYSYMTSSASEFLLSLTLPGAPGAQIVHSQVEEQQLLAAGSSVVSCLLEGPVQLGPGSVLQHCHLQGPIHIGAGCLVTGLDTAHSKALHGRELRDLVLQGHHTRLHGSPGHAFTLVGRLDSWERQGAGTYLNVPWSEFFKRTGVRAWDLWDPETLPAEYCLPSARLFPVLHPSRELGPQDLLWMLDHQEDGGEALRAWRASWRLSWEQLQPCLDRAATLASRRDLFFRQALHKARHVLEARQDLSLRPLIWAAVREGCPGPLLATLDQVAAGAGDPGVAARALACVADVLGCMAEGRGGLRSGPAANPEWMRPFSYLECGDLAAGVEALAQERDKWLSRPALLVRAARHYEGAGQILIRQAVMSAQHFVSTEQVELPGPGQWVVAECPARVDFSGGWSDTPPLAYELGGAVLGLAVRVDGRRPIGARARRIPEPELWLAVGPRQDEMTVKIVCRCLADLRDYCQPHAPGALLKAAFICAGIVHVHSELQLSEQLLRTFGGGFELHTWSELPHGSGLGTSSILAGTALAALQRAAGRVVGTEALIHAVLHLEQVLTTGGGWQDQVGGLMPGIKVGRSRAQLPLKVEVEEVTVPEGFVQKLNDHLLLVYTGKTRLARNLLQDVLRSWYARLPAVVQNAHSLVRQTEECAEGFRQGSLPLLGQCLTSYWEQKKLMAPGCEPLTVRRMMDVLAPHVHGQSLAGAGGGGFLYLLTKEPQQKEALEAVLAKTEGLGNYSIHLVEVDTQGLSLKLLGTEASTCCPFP
UniProt Q92913: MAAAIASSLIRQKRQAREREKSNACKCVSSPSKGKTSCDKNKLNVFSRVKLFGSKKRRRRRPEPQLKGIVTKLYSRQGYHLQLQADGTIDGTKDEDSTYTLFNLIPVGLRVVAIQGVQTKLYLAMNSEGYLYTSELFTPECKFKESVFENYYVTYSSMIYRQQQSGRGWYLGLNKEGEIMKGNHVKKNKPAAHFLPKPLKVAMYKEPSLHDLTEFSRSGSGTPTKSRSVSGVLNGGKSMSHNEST
UniProt P26885: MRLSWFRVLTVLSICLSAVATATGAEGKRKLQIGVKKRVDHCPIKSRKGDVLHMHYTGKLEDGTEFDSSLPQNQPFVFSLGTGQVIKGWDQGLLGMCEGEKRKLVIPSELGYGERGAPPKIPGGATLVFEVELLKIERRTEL
UniProt Q5T1M5: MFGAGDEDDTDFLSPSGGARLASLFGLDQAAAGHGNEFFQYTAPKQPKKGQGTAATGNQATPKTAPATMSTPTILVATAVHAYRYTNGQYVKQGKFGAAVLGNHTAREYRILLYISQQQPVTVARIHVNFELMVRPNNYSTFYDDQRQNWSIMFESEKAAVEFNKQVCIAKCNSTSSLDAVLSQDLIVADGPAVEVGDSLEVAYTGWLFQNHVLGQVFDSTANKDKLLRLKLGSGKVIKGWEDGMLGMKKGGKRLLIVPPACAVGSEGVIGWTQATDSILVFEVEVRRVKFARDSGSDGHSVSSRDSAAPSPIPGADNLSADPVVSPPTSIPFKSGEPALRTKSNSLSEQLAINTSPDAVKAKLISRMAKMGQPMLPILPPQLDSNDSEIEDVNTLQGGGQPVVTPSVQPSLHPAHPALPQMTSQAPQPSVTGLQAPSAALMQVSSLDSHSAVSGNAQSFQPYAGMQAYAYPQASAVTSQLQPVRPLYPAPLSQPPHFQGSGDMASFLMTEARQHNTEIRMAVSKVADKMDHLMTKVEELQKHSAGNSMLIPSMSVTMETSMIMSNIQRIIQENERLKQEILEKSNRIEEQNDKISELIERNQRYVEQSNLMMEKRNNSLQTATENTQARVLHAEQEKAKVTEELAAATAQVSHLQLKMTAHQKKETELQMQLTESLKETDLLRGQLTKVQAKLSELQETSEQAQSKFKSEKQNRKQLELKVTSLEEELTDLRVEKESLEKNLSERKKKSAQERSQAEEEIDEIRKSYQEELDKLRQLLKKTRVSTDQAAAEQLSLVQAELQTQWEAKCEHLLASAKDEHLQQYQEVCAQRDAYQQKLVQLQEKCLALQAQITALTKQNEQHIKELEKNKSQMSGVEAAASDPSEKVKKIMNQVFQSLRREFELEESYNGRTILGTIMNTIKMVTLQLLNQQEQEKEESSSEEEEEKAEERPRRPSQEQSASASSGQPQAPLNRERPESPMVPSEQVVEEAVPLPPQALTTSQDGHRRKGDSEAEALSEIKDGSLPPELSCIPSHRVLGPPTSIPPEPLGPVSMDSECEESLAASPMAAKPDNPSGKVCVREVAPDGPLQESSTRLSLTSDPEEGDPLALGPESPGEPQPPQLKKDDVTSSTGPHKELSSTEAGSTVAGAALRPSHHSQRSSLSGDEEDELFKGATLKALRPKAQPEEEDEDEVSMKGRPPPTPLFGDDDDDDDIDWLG
UniProt Q6UN15: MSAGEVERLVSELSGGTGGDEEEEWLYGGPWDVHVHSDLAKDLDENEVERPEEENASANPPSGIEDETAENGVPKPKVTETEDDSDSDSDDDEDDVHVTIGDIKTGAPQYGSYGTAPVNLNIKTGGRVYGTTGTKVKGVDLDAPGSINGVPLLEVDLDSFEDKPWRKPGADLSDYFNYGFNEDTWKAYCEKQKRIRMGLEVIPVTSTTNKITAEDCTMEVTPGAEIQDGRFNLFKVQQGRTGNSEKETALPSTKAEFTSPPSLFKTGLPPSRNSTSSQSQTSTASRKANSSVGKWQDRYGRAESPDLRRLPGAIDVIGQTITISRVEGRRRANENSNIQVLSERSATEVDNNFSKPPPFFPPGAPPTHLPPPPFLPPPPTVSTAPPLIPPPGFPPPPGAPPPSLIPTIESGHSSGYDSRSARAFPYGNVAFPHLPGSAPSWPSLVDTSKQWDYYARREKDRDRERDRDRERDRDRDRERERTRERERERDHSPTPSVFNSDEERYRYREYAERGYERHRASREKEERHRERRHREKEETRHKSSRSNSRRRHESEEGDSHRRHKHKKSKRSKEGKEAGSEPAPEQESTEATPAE
UniProt P49327, whole entry, looked up: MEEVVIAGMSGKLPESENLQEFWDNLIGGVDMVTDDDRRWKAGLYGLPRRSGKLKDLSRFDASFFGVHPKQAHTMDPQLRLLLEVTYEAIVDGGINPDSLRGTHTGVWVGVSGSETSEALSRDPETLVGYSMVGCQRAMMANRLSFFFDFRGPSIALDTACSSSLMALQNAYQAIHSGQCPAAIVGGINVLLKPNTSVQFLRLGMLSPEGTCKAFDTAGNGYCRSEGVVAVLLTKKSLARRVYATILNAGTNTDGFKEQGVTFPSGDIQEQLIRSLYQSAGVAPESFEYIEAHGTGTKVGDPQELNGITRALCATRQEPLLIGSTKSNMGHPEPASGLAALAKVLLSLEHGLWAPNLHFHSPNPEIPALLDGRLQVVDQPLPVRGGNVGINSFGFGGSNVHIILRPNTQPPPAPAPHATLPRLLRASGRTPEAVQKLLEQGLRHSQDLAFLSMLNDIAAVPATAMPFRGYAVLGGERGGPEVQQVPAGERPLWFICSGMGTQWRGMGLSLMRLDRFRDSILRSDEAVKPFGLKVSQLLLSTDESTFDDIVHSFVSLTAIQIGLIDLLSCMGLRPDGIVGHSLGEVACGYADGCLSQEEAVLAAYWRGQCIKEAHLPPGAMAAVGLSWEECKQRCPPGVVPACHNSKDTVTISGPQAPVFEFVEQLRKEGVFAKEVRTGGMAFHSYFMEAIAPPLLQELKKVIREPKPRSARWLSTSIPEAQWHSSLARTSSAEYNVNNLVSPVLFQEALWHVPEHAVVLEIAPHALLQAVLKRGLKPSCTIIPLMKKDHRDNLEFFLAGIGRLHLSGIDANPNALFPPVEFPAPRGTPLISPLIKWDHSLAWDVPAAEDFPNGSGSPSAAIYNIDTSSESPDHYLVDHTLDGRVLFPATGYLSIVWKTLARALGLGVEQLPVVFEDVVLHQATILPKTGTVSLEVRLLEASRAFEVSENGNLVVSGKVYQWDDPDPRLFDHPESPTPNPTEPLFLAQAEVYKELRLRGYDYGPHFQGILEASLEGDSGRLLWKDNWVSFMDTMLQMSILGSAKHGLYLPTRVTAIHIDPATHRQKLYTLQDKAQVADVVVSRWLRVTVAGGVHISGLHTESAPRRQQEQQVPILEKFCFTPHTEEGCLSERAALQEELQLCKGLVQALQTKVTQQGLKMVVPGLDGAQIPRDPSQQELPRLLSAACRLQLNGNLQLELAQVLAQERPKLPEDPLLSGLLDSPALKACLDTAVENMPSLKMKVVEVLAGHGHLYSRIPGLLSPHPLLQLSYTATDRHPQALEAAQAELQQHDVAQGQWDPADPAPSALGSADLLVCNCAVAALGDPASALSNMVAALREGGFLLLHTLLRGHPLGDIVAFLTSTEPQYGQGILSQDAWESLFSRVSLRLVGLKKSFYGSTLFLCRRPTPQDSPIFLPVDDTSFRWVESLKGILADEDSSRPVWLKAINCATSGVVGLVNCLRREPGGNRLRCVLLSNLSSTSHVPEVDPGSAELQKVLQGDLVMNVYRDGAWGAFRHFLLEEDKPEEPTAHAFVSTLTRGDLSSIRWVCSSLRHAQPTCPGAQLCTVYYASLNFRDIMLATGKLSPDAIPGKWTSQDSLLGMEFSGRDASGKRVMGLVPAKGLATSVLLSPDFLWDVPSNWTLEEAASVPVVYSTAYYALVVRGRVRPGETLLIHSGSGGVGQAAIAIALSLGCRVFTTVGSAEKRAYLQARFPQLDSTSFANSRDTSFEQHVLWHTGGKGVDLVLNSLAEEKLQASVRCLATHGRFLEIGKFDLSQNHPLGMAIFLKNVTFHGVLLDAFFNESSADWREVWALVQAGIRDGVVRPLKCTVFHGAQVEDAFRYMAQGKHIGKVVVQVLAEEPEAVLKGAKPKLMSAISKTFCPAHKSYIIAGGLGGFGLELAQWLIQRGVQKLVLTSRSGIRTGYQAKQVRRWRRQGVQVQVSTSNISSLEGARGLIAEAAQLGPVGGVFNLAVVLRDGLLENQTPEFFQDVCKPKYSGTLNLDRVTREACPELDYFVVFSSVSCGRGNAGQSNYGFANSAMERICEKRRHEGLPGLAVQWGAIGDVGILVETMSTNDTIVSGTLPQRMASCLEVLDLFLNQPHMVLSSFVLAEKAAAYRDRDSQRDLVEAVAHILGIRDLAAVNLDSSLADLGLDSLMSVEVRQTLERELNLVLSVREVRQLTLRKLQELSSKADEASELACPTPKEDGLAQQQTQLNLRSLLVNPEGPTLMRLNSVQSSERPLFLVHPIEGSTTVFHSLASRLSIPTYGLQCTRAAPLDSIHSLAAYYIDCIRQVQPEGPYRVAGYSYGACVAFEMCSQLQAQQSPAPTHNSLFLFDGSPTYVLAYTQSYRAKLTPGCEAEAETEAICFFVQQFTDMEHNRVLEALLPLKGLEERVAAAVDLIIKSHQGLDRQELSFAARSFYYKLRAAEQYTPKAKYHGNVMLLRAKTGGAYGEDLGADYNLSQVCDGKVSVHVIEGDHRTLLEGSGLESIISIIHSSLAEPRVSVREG

Experiments:
Experiment in all cases: log2 fold change, soluble protein after heating vs DMSO (PISA); higher = thermal stabilisation; K562 cells, 10 uM, 30 min; active = over 0.2 and 3.5 SD of the protein, either way, in both replicates (recomputed)
erlotinib = compound: C#Cc1cccc(Nc2ncnc3cc(OCCOC)c(OCCOC)cc23)c1 [erlotinib]
Summary of the method: (§1)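 Soluble protein was defined as the supernatant after 21,000xg for 90 min. It came from K562 cells at 2×10^6 cells/mL given 10 μM compound for 30 min, heated in aliquots for 3 min across 48°C-58°C, pooled, and extracted in PBS with 0.5% NP-40 at 4°C, and was quantified by TMTpro 16plex LC-MS/MS with equalised channel sums. Thermal stability against control samples, from duplicates, is reported as log2 fold change.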

[1] = compound: C/C(=N\NC(=O)C1=CC(=CC=C1)S(=O)(=O)N2CCOCC2)/C3=C(C=CC(=C3)Cl)O
Summary of the method: as §1

[2] = compound: C1=CC(=C(C=C1Cl)C2=NC3=NC=CN=C3C(=N2)NC4=CC=NC=C4)F
Summary of the method: as §1

[3] = compound: C1=CC(=CC=C1C2=NC3=C(N2)C=C(C=C3)C(=O)N)OC4=CC=C(C=C4)Cl
Summary of the method: as §1

[4] = compound: C1=CC2=C(C=CC(=C2)/C=C\3/C(=O)NC(=NCC4=CC=CS4)S3)N=C1
Summary of the method: as §1

[5] = compound: C1=CC2=NC=CN=C2C=C1/C=C/3\C(=O)NC(=O)S3
Summary of the method: as §1

[6] = compound: C1=CC=C(C=C1)C2=NC(=C(N2)C3=CC=NC=C3)C4=CC(=C(C=C4)Cl)O
Summary of the method: as §1

[7] = compound: C1=CC=C2C(=C1)C3=NNC4=CC=CC(=C43)C2=O
Summary of the method: as §1

[8] = compound: C1CCN(C1)C(=O)NC2=CC=CC(=C2)NC3=NC=C(C(=N3)NCCC4=CN=CN4)Br
Summary of the method: as §1

[9] = compound: C1CN(CCC1(CC2=CC=C(C=C2)Cl)N)C3=NC=NC4=C3C=CN4
Summary of the method: as §1

IRAK-1-4 Inhibitor I = compound: C1COCCN1CCN2C3=CC=CC=C3N=C2NC(=O)C4=CC(=CC=C4)[N+](=O)[O-] [IRAK-1-4 Inhibitor I]
Summary of the method: as §1

ibrutinib = compound: C=CC(=O)N1CCC[C@@H](n2nc(-c3ccc(Oc4ccccc4)cc3)c3c(N)ncnc32)C1 [ibrutinib]
Summary of the method: as §1

[10] = compound: CC(=O)c1cnc2ccc(-c3cc(Cl)c(O)c(Cl)c3)nc2c1N[C@H]1CC[C@H](CN(C)C)CC1
Summary of the method: as §1

ralimetinib = compound: CC(C)(C)Cn1c(N)nc2ccc(-c3[nH]c(C(C)(C)C)nc3-c3ccc(F)cc3)nc21 [ralimetinib]
Summary of the method: as §1

[11] = compound: CC(C)(O)CC(=O)NCCn1ccc2ncnc(Nc3ccc(Oc4cccc(C(F)(F)F)c4)c(Cl)c3)c21
Summary of the method: as §1

[12] = compound: CC(C)C1=C2N=C(C=C(N2N=C1)NCC3=CC=CC=C3)NCCCCCCN
Summary of the method: as §1

[13] = compound: CC(C)C[C@@H](C=O)NC(=O)[C@H](CC(C)C)NC(=O)[C@H](CC(C)C)NC(=O)OCc1ccccc1
Summary of the method: as §1

pinometostat = compound: CC(C)N(C[C@H]1O[C@@H](n2cnc3c(N)ncnc32)[C@H](O)[C@@H]1O)[C@H]1C[C@@H](CCc2nc3cc(C(C)(C)C)ccc3[nH]2)C1 [pinometostat]
Summary of the method: as §1

[14] = compound: CC1=C(C(CC(=O)N1)C2=CC=C(C=C2)C(F)(F)F)C(=O)NC3=C(C=C4C(=C3)C=NN4)F
Summary of the method: as §1

[15] = compound: CC1=C(C2=C(C=C1)C(=O)C3=CC=CC=C3N2CCCN)C
Summary of the method: as §1

Measured: log2 fold change

FAM32A (UniProt Q9Y421)
inactive: erlotinib 0.222 | [1] 0.056 | [2] -0.163 | [3] 0.007 | [4] -0.018 | [5] 0.009 | [6] -0.079 | [7] -0.011 | [8] -0.065 | [9] -0.075 | IRAK-1-4 Inhibitor I -0.142 | ibrutinib 0.04 | [10] 0.077 | ralimetinib 0.062 | [11] 0.057 | [12] 0.087 | [13] 0.144 | pinometostat -0.001 | [14] 0.08 | [15] -0.023

FKBP1A (UniProt P62942)
inactive: erlotinib -0.275 | [1] 0.122 | [2] -0.003 | [3] 0.127 | [4] 0.238 | [5] -0.004 | [6] -0.009 | [7] 0.039 | [8] -0.03 | [9] -0.014 | IRAK-1-4 Inhibitor I 0.022 | ibrutinib 0.094 | [10] -0.053 | ralimetinib -0.01 | [11] 0.006 | [12] 0.108 | [13] 0.033 | pinometostat 0.024 | [14] -0.007 | [15] 0.211

FGFR1OP (UniProt O95684)
inactive: erlotinib 0.002 | [1] 0.017 | [2] 0.003 | [3] 0.056 | [4] 0.016 | [5] 0.061 | [6] -0.018 | [7] -0.039 | [8] -0.01 | [9] -0.067 | IRAK-1-4 Inhibitor I 0.017 | ibrutinib 0.012 | [10] 0.028 | ralimetinib -0.042 | [11] -0.009 | [12] -0.048 | [13] 0.129 | pinometostat -0.048 | [14] -0.014 | [15] -0.081

FARSB (UniProt Q9NSD9)
inactive: erlotinib 0.004 | [1] 0.046 | [2] 0 | [3] -0.009 | [4] 0.033 | [5] 0.015 | [6] 0.006 | [7] 0.017 | [8] 0.012 | [9] -0.001 | IRAK-1-4 Inhibitor I -0.028 | ibrutinib -0.036 | [10] 0.009 | ralimetinib 0.022 | [11] -0.023 | [12] -0.066 | [13] -0.004 | pinometostat 0.012 | [14] 0.004 | [15] -0.004

FLOT2 (UniProt Q14254)
inactive: erlotinib -0.052 | [1] -0.085 | [2] -0.198 | [3] -0.029 | [4] -0.053 | [5] 0.044 | [6] -0.015 | [7] 0.063 | [8] -0.043 | [9] -0.095 | IRAK-1-4 Inhibitor I -0.152 | ibrutinib -0.118 | [10] 0.008 | ralimetinib 0.126 | [11] 0.076 | [12] -0.086 | [13] 0.073 | pinometostat 0.119 | [14] 0.027 | [15] 0.011

FBXO5 (UniProt Q9UKT4)
inactive: erlotinib -0.014 | [1] 0.117 | [2] 0.003 | [3] -0.007 | [4] -0.079 | [5] 0.086 | [6] -0.04 | [7] 0.01 | [8] 0.008 | [9] 0.028 | IRAK-1-4 Inhibitor I 0 | ibrutinib -0.044 | [10] -0.033 | ralimetinib 0.048 | [11] -0.001 | [12] 0.07 | [13] 0.144 | pinometostat 0.011 | [14] 0.101 | [15] -0.032

FCGR2C (UniProt P31995)
inactive: erlotinib 0.04 | [1] 0.014 | [2] 0.046 | [3] -0.036 | [4] 0.006 | [5] 0 | [6] 0.051 | [7] -0.03 | [8] -0.02 | [9] 0.086 | IRAK-1-4 Inhibitor I 0.095 | ibrutinib 0.096 | [10] -0.057 | ralimetinib -0.032 | [11] 0.093 | [12] 0.143 | [13] 0.01 | pinometostat -0.031 | [14] -0.006 | [15] 0.021

FCSK isoform 2 (UniProt Q8N0W3)
inactive: erlotinib 0.006 | [1] 0.041 | [2] 0.097 | [3] 0.091 | [4] -0.008 | [5] 0.004 | [6] -0.021 | [7] 0.017 | [8] -0.061 | [9] 0.024 | IRAK-1-4 Inhibitor I 0.058 | ibrutinib -0.004 | [10] -0.04 | ralimetinib -0.046 | [11] -0.026 | [12] 0.076 | [13] 0.024 | pinometostat -0.013 | [14] -0.025 | [15] -0.031

FGF13 isoform 3 (UniProt Q92913)
inactive: erlotinib 0.137 | [1] 0 | [2] -0.097 | [3] -0.017 | [4] 0.143 | [5] 0.03 | [6] -0.001 | [7] 0.022 | [8] -0.011 | [9] -0.037 | IRAK-1-4 Inhibitor I -0.081 | ibrutinib 0.076 | [10] 0.048 | ralimetinib -0.088 | [11] -0.069 | [12] 0.145 | [13] 0.111 | pinometostat 0.011 | [14] 0.067 | [15] 0.12

FKBP2 (UniProt P26885)
inactive: erlotinib -0.041 | [1] -0.061 | [2] -0.045 | [3] -0.015 | [4] 0.092 | [5] -0.028 | [6] 0.015 | [7] -0.023 | [8] -0.033 | [9] 0.027 | IRAK-1-4 Inhibitor I 0.028 | ibrutinib 0.026 | [10] -0.027 | ralimetinib -0.037 | [11] 0.052 | [12] 0.002 | [13] 0.055 | pinometostat -0.018 | [14] -0.023 | [15] 0.026

FANCB (UniProt Q8NB91)
inactive: erlotinib 0.005 | [1] -0.02 | [2] 0.056 | [3] 0.038 | [4] 0.055 | [5] -0.007 | [6] -0.027 | [7] 0.057 | [8] -0.054 | [9] 0.036 | IRAK-1-4 Inhibitor I 0.035 | ibrutinib -0.004 | [10] -0.065 | ralimetinib -0.061 | [11] -0.007 | [12] 0.07 | [13] -0.006 | pinometostat 0.004 | [14] 0.031 | [15] 0.049

FKBP15 (UniProt Q5T1M5)
inactive: erlotinib 0.044 | [1] 0.035 | [2] 0.012 | [3] 0.001 | [4] 0.024 | [5] -0.035 | [6] 0.016 | [7] -0.019 | [8] -0.106 | [9] -0.113 | IRAK-1-4 Inhibitor I -0.123 | ibrutinib -0.023 | [10] -0.058 | ralimetinib 0.084 | [11] -0.094 | [12] -0.113 | [13] 0.052 | pinometostat 0.06 | [14] 0.117 | [15] 0.035

FIP1L1 (UniProt Q6UN15)
inactive: erlotinib -0.039 | [1] -0.027 | [2] -0.067 | [3] 0.05 | [4] -0.055 | [5] 0.076 | [6] -0.078 | [7] -0.057 | [8] 0.008 | [9] 0.028 | IRAK-1-4 Inhibitor I 0.006 | ibrutinib 0.048 | [10] -0.043 | ralimetinib -0.007 | [11] 0.136 | [12] 0.02 | [13] 0.11 | pinometostat 0.01 | [14] 0.089 | [15] -0.014

Two entries picked at random from those above, as already listed:
FKBP2 (UniProt P26885)
inactive: erlotinib -0.041 | [1] -0.061 | [2] -0.045 | [3] -0.015 | [4] 0.092 | [5] -0.028 | [6] 0.015 | [7] -0.023 | [8] -0.033 | [9] 0.027 | IRAK-1-4 Inhibitor I 0.028 | ibrutinib 0.026 | [10] -0.027 | ralimetinib -0.037 | [11] 0.052 | [12] 0.002 | [13] 0.055 | pinometostat -0.018 | [14] -0.023 | [15] 0.026

FGF13 isoform 3 (UniProt Q92913)
inactive: erlotinib 0.137 | [1] 0 | [2] -0.097 | [3] -0.017 | [4] 0.143 | [5] 0.03 | [6] -0.001 | [7] 0.022 | [8] -0.011 | [9] -0.037 | IRAK-1-4 Inhibitor I -0.081 | ibrutinib 0.076 | [10] 0.048 | ralimetinib -0.088 | [11] -0.069 | [12] 0.145 | [13] 0.111 | pinometostat 0.011 | [14] 0.067 | [15] 0.12

Next part

FCHO2 (UniProt Q0JRZ9)
inactive: erlotinib -0.006 | [1] 0.125 | [2] -0.08 | [3] 0.082 | [4] 0.012 | [5] -0.087 | [6] -0.056 | [7] -0.025 | [8] 0.069 | [9] -0.018 | IRAK-1-4 Inhibitor I -0.011 | ibrutinib -0.064 | [10] -0.236 | ralimetinib -0.034 | [11] -0.022 | [12] -0.153 | [13] 0.073 | pinometostat -0.065 | [14] -0.313 | [15] 0.032

FAM234A (UniProt Q9H0X4)
inactive: erlotinib 0.044 | [1] -0.036 | [2] -0.111 | [3] 0.018 | [4] 0.007 | [5] 0.037 | [6] -0.01 | [7] -0.012 | [8] 0.001 | [9] 0.055 | IRAK-1-4 Inhibitor I -0.02 | ibrutinib 0.056 | [10] -0.053 | ralimetinib -0.009 | [11] 0.011 | [12] 0.103 | [13] 0.031 | pinometostat -0.024 | [14] 0.023 | [15] 0.012

FASN (UniProt P49327)
inactive: erlotinib -0.012 | [1] 0.049 | [2] 0.036 | [3] 0.016 | [4] -0.008 | [5] 0.062 | [6] 0.043 | [7] 0.014 | [8] -0.009 | [9] -0.025 | IRAK-1-4 Inhibitor I 0 | ibrutinib -0.037 | [10] 0.044 | ralimetinib 0.008 | [11] -0.082 | [12] -0.017 | [13] -0.011 | pinometostat -0.015 | [14] -0.011 | [15] 0.025
